Patent US20220127335A1, “TETRAMERIC PROTEIN SCAFFOLDS AS NANO-CARRIERS OF THERAPEUTIC PEPTIDES FOR TREATING CANCER AND OTHER DISEASES” (UNIVERSITY OF MARYLAND, BALTIMORE, priority 2019, published 2022)
No constants are given. Whether binding was seen depends on the method and setting. Some binding calls cover weakened binding; strength is not graded here.

Key:
[1] = biological target: Bcr/Abl-R6 (Homo sapiens (Human)) (UniProt P11274); test: self-association into tetramer; SEC, DLS
[2] = biological target: Bcr/Abl-R6 (Homo sapiens (Human)) (UniProt P11274); test: self-association into tetramer; size exclusion chromatography, Superdex 75

B1: Bcr/Abl-R6 (other)
chain: MVDPVGFAEAWKAQFPDSEPPRMELRSVGDIEQELERAKASIRRLEQEVNQERFRMIYLQTLLAKEKKSYDRRRRRRR
notes: Negative control scaffold without the PMI graft: Bcr/Abl tetramerization domain with C-terminal R6; Chemically synthesized; tetramer in aqueous buffer
binding [1]: binds | binding [2]: binds
